Consider one molecule from publication doi:10.1101/2025.09.16.676506.

The chains behind the UniProt entries cited, without tags or fusion partners. Where a name states a change or a piece, a line headed by the entry shows the natural chain unless it says otherwise.
UniProt P26648: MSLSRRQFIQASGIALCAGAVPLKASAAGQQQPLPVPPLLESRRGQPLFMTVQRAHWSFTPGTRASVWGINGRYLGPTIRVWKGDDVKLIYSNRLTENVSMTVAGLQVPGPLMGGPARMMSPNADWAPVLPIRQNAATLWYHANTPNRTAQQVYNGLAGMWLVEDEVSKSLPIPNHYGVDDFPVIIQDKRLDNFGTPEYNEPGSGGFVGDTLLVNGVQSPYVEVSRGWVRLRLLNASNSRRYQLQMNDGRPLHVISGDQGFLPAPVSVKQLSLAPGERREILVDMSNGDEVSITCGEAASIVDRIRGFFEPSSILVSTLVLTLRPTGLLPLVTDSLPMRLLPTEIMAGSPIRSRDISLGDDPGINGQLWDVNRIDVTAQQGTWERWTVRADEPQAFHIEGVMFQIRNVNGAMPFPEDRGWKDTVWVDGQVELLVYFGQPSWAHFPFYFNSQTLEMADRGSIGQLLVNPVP

Results are given in words; binding and its absence hold for the method and conditions named. Binding seen in cells or lysates may run through a third protein. Binding can be weak; no strength is given.

This assay addresses SufI–8×His (E. coli) (UniProt P26648). As to the kind of experiment: pull-down.

B1: TatA (protein, UniProt P69428 1-89)
chain: MGGISIWQLLIIAVIVVLLFGTKKLGSIGSDLGASIKGFKKAMSDDEPKQDKTSQDADFTAKTIADKQADTNQEQAKTEDAKRHDKEQV
For the molecule B1, the binding result is “binds”.
